No constants are given. Whether binding was seen depends on the method and setting. Binding seen in cells or lysates may run through a third protein. Some entries that bind do so weakly or less than the wild type.
Target: telomere repeat binding factor 2 (TRF2) (human) (UniProt Q15554)
Experiment: co-IP; unpublished observations; cells, antibodies and conditions not told

Protein sequences, listed by entry. Tags and fused reporters are not part of them.
UniProt Q15554: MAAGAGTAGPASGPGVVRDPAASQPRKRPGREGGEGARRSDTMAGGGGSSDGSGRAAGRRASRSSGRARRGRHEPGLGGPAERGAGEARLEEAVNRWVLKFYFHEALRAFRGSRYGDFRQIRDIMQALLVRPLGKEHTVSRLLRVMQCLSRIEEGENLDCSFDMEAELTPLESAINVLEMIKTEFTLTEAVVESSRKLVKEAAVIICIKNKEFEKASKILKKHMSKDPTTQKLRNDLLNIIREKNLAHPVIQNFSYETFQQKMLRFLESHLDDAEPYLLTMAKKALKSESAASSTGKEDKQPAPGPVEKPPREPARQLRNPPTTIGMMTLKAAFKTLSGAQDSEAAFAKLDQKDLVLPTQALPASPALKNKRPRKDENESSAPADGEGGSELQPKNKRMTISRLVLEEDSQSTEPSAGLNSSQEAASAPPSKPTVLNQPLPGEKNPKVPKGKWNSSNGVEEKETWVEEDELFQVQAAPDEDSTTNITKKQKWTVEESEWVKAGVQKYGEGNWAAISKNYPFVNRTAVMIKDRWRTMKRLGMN

binding: binds
B1: heregulin isoform β2 (HRGβ2) (protein, UniProt Q02297-7 20-637)
chain: SGKKPESAAGSQSPALPPRLKEMKSQESAAGSKLVLRCETSSEYSSLRFKWFKNGNELNRKNKPQNIKIQKKPGKSELRINKASLADSGEYMCKVISKLGNDSASANITIVESNEIITGMPASTEGAYVSSESPIRISVSTEGANTSSSTSTSTTGTSHLVKCAEKEKTFCVNGGECFMVKDLSNPSRYLCKCPNEFTGDRCQNYVMASFYKAEELYQKRVLTITGICIALLVVGIMCVVAYCKTKKQRKKLHDRLRQSLRSERNNMMNIANGPHHPNPPPENVQLVNQYVSKNVISSEHIVEREAETSFSTSHYTSTAHHSTTVTQTPSHSWSNGHTESILSESHSVIVMSSVENSRHSSPTGGPRGRLNGTGGPRECNSFLRHARETPDSYRDSPHSERYVSAMTTPARMSPVDFHTPSSPKSPPSEMSPPVSSMTVSMPSMAVSPFMEEERPLLLVTPPRLREKKFDHHPQQFSSFHHNPAHDSNSLPASPLRIVEDEEYETTQEYEPAQEPVKKLANSRRAKRTKPNGHIANRLEVDSNTSSQSSNSESETEDERVGEDTPFLGIQNPLAASLEATPAFRLADSRTNPAGRFSTQEEIQARLSSVIANQDPIAV

From paper PMC4741836
